Reference: the supplement of paper PMC8728848
The other results are listed elsewhere or left out.

Legend:
Assay in all cases: glycan array binding signal (z-score within array); higher = stronger binding
Conditions in all cases: glycan notation: IUPAC condensed, linker removed
[1] = molecular target: Neu5Ac(a2-3)Gal(b1-4)GlcNAc(b1-2)Man(a1-3)[Neu5Ac(a2-6)Gal(b1-4)GlcNAc(b1-2)Man(a1-6)]Man(b1-4)GlcNAc(b1-4)GlcNAc
Procedure, shortened: (§1)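 Columns mapping to the same glycan were averaged after glycan names were converted to IUPAC-condensed notation. The data come from 3228 arrays in the Consortium for Functional Glycomics database, limited to those with an available protein sequence. Binding is reported as a within-array Z-score averaged across arrays of one protein sequence and across linkers.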

[2] = molecular target: Neu5Ac(a2-3)Gal(b1-4)GlcNAc(b1-2)[Neu5Ac(a2-3)Gal(b1-4)GlcNAc(b1-4)]Man(a1-3)[GlcNAc(b1-4)][Neu5Ac(a2-3)Gal(b1-4)GlcNAc(b1-2)[Neu5Ac(a2-3)Gal(b1-4)GlcNAc(b1-6)]Man(a1-6)]Man(b1-4)GlcNAc(b1-4)GlcNAc
Procedure, shortened: as §1

[3] = molecular target: Neu5Ac(a2-3)Gal(b1-4)GlcNAc(b1-2)[Neu5Ac(a2-3)Gal(b1-4)GlcNAc(b1-4)]Man(a1-3)[GlcNAc(b1-4)][Neu5Ac(a2-3)Gal(b1-4)GlcNAc(b1-4)Man(a1-6)]Man(b1-4)GlcNAc(b1-4)GlcNAc
Procedure, shortened: as §1

[4] = molecular target: Neu5Ac(a2-3)Gal(b1-4)GlcNAc(b1-2)[Neu5Ac(a2-3)Gal(b1-4)GlcNAc(b1-6)]Man(a1-6)[Neu5Ac(a2-3)Gal(b1-4)GlcNAc(b1-2)Man(a1-3)][GlcNAc(b1-4)]Man(b1-4)GlcNAc(b1-4)GlcNAc
Procedure, shortened: as §1

[5] = molecular target: Neu5Ac(a2-3)Gal(b1-4)GlcNAc(b1-3)Gal
Procedure, shortened: as §1

[6] = molecular target: Neu5Ac(a2-3)Gal(b1-4)GlcNAc(b1-3)Gal(b1-3)GlcNAc
Procedure, shortened: as §1

[7] = molecular target: Neu5Ac(a2-3)Gal(b1-4)GlcNAc(b1-3)Gal(b1-4)GlcNAc
Procedure, shortened: as §1

[8] = molecular target: Neu5Ac(a2-3)Gal(b1-4)GlcNAc(b1-3)Gal(b1-4)GlcNAc(b1-2)Man(a1-3)[Neu5Ac(a2-3)Gal(b1-4)GlcNAc(b1-3)Gal(b1-4)GlcNAc(b1-2)Man(a1-6)]Man(b1-4)GlcNAc(b1-4)GlcNAc
Procedure, shortened: as §1

[9] = molecular target: Neu5Ac(a2-3)Gal(b1-4)GlcNAc(b1-3)Gal(b1-4)GlcNAc(b1-3)Gal(b1-4)GlcNAc
Procedure, shortened: as §1

[10] = molecular target: Neu5Ac(a2-3)Gal(b1-4)GlcNAc(b1-3)Gal(b1-4)GlcNAc(b1-3)Gal(b1-4)GlcNAc(b1-2)Man(a1-3)[Neu5Ac(a2-3)Gal(b1-4)GlcNAc(b1-3)Gal(b1-4)GlcNAc(b1-3)Gal(b1-4)GlcNAc(b1-2)Man(a1-6)]GalNAc
Procedure, shortened: as §1

[11] = molecular target: Neu5Ac(a2-3)Gal(b1-4)GlcNAc(b1-3)Gal(b1-4)GlcNAc(b1-3)GalNAc
Procedure, shortened: as §1

[12] = molecular target: Neu5Ac(a2-3)Gal(b1-4)GlcNAc(b1-3)Gal(b1-4)GlcNAc(b1-3)[Neu5Ac(a2-3)Gal(b1-4)GlcNAc(b1-3)Gal(b1-4)GlcNAc(b1-6)]GalNAc
Procedure, shortened: as §1

[13] = molecular target: Neu5Ac(a2-3)Gal(b1-4)GlcNAc(b1-3)Gal(b1-4)GlcNAc(b1-6)[Gal(b1-3)]GalNAc
Procedure, shortened: as §1

[14] = molecular target: Neu5Ac(a2-3)Gal(b1-4)GlcNAc(b1-3)Gal(b1-4)[Fuc(a1-3)]GlcNAc
Procedure, shortened: as §1

[15] = molecular target: Neu5Ac(a2-3)Gal(b1-4)GlcNAc(b1-3)GalNAc
Procedure, shortened: as §1

[16] = molecular target: Neu5Ac(a2-3)Gal(b1-4)GlcNAc(b1-3)[Neu5Ac(a2-3)Gal(b1-4)GlcNAc(b1-6)]GalNAc
Procedure, shortened: as §1

[17] = molecular target: Neu5Ac(a2-3)Gal(b1-4)GlcNAc(b1-6)GalNAc
Procedure, shortened: as §1

[18] = molecular target: Neu5Ac(a2-3)Gal(b1-4)GlcNAc(b1-6)[Gal(b1-3)]GalNAc
Procedure, shortened: as §1

[19] = molecular target: Neu5Ac(a2-3)Gal(b1-4)GlcNAc(b1-6)[Neu5Ac(a2-3)Gal(b1-3)]GalNAc
Procedure, shortened: as §1

[20] = molecular target: Neu5Ac(a2-3)Gal(b1-4)GlcNAc6S
Procedure, shortened: as §1

[21] = molecular target: Neu5Ac(a2-3)Gal(b1-4)[Fuc(a1-3)]GlcNAc
Procedure, shortened: as §1

[22] = molecular target: Neu5Ac(a2-3)Gal(b1-4)[Fuc(a1-3)]GlcNAc(b1-2)Man
Procedure, shortened: as §1

[23] = molecular target: Neu5Ac(a2-3)Gal(b1-4)[Fuc(a1-3)]GlcNAc(b1-3)Gal
Procedure, shortened: as §1

[24] = molecular target: Neu5Ac(a2-3)Gal(b1-4)[Fuc(a1-3)]GlcNAc(b1-3)Gal(b1-4)GlcNAc
Procedure, shortened: as §1

[25] = molecular target: Neu5Ac(a2-3)Gal(b1-4)[Fuc(a1-3)]GlcNAc(b1-3)Gal(b1-4)[Fuc(a1-3)]GlcNAc(b1-3)Gal(b1-4)[Fuc(a1-3)]GlcNAc
Procedure, shortened: as §1

[26] = molecular target: Neu5Ac(a2-3)Gal(b1-4)[Fuc(a1-3)]GlcNAc(b1-3)GalNAc
Procedure, shortened: as §1

[27] = molecular target: Neu5Ac(a2-3)Gal(b1-4)[Fuc(a1-3)]GlcNAc(b1-6)[Gal(b1-3)]GalNAc
Procedure, shortened: as §1

[28] = molecular target: Neu5Ac(a2-3)Gal(b1-4)[Fuc(a1-3)]GlcNAc(b1-6)[Neu5Ac(a2-3)Gal(b1-3)]GalNAc
Procedure, shortened: as §1

[29] = molecular target: Neu5Ac(a2-3)Gal(b1-4)[Fuc(a1-3)]GlcNAc6S
Procedure, shortened: as §1

[30] = molecular target: Neu5Ac(a2-3)Gal6S(b1-4)GlcNAc
Procedure, shortened: as §1

[31] = molecular target: Neu5Ac(a2-3)Gal6S(b1-4)[Fuc(a1-3)]GlcNAc
Procedure, shortened: as §1

Neu5Ac(a2-3)GalNAc = molecular target: Neu5Ac(a2-3)GalNAc
Procedure, shortened: as §1

[32] = molecular target: Neu5Ac(a2-3)GalNAc(b1-4)GlcNAc
Procedure, shortened: as §1

[33] = molecular target: Neu5Ac(a2-3)[GalNAc(b1-4)]Gal(b1-4)Glc
Procedure, shortened: as §1

[34] = molecular target: Neu5Ac(a2-3)[GalNAc(b1-4)]Gal(b1-4)GlcNAc
Procedure, shortened: as §1

[35] = molecular target: Neu5Ac(a2-3)[GalNAc(b1-4)]Gal(b1-4)GlcNAc(b1-3)GalNAc
Procedure, shortened: as §1

[36] = molecular target: Neu5Ac(a2-3)[Neu5Ac(a2-6)]GalNAc
Procedure, shortened: as §1

B1: Epa21 (Candida glabrata) (protein)
chain: MGSSHHHHHHSSGLVPRGSHMASTPNIESHPQGCSPVDTSGIKPGLKMDLYRFPITPPGTGCWSWDWLTVTPDFPRSGYWKWPKIAEVDGVVGPLHLDSGHPTCDPLTSVLPHGFNYLQSITTTNFTMVLHGYFVPKQSGKYTFEFKADDALLLNLGAGNAFSCCDYNNSQYNQGEYLAYAIWSKNNQTATLYLEKGIYYPIRVFYHNRCCGAYMDVVYYFNDSPIPNRDFSGLLFSIPDSDSCDANI
[1]
  glycan array binding signal (z-score): -1.7
[2]
  glycan array binding signal (z-score): -0.23
[3]
  glycan array binding signal (z-score): -0.468
[4]
  glycan array binding signal (z-score): -0.463
[5]
  glycan array binding signal (z-score): -0.23
[6]
  glycan array binding signal (z-score): -0.478
[7]
  glycan array binding signal (z-score): -0.339
[8]
  glycan array binding signal (z-score): 0.389
[9]
  glycan array binding signal (z-score): 0.623
[10]
  glycan array binding signal (z-score): 1.05
[11]
  glycan array binding signal (z-score): 3.03
[12]
  glycan array binding signal (z-score): 1.32
[13]
  glycan array binding signal (z-score): 0.188
[14]
  glycan array binding signal (z-score): 0.46
[15]
  glycan array binding signal (z-score): 0.017
[16]
  glycan array binding signal (z-score): 0.888
[17]
  glycan array binding signal (z-score): -0.355
[18]
  glycan array binding signal (z-score): 0.764
[19]
  glycan array binding signal (z-score): -0.674
[20]
  glycan array binding signal (z-score): 0.644
[21]
  glycan array binding signal (z-score): -0.539
[22]
  glycan array binding signal (z-score): -0.448
[23]
  glycan array binding signal (z-score): -0.526
[24]
  glycan array binding signal (z-score): 0.422
[25]
  glycan array binding signal (z-score): -0.235
[26]
  glycan array binding signal (z-score): 1.87
[27]
  glycan array binding signal (z-score): 2.11
[28]
  glycan array binding signal (z-score): 1.81
[29]
  glycan array binding signal (z-score): 0.564
[30]
  glycan array binding signal (z-score): -0.217
[31]
  glycan array binding signal (z-score): -0.818
Neu5Ac(a2-3)GalNAc
  glycan array binding signal (z-score): -0.485
[32]
  glycan array binding signal (z-score): 0.876
[33]
  glycan array binding signal (z-score): -0.854
[34]
  glycan array binding signal (z-score): -0.863
[35]
  glycan array binding signal (z-score): -0.061
[36]
  glycan array binding signal (z-score): 0.567
